Data from the primary screen of doi:10.1371/journal.pone.0140310, rounded.

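Human melanoma cells were exposed to a pair of drugs for 72 h in 1,536-well plates and read by automated microscopy after fixing and staining. The read-out is the fraction of cleaved-PARP-positive nuclei, in % of that fraction in the DMSO control; 200 means twice the control level of this apoptosis marker. Concentrations were fixed for each drug; these are the higher of two levels. No replicate spread is given; individual values may be noisy. The marker varies much from line to line, for technical or biological reasons.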 This is part of the screen, not chosen by result. A dash means that no value is listed here.

Drug key:
GW2580, 5000 nM: COc1ccc(COc2ccc(Cc3cnc(N)nc3N)cc2OC)cc1
GW0742, 10000 nM: Cc1cc(SCc2sc(-c3ccc(C(F)(F)F)c(F)c3)nc2C)ccc1OCC(=O)O
vatalanib, 10000 nM: Clc1ccc(Nc2nnc(Cc3ccncc3)c3ccccc23)cc1
perifosine, 2000 nM: CCCCCCCCCCCCCCCCCCOP(=O)([O-])OC1CC[N+](C)(C)CC1

Cell line,vatalanib + perifosine,perifosine + GW0742,vatalanib + GW2580,perifosine + GW2580,vatalanib + GW0742,GW2580 + GW0742
WM115,62.8,60.3,52.1,101,109,111
A375,47.1,156,80.5,136,272,70.7
SK-MEL-2,73.4,23.6,128,31.7,188,116
LB2518-MEL,62.1,46.5,68.9,44.1,-,70.1
MeWo,84.4,168,169,38.5,82.2,43.2
IPC-298,58.1,82.8,60.5,41.3,76.2,28.7
G-361,151,48.9,69.2,71.9,35.7,51.5
MEL-HO,234,166,54.7,40.2,44.7,83.7
A101D,60.7,41.2,234,80.1,58.5,71.3
COLO 829,110,83.8,170,23.6,192,22.4
WM3619,130,120,129,69.8,292,98.7
RVH-421,97.1,101,206,66.3,180,112
SK-MEL-28,72.4,113,147,61.0,512,94.5
MZ2-MEL,63.6,61.1,88.1,103,-,81.4
UACC-257,172,40.9,98.8,112,51.3,58.3
IST-MEL1,68.6,119,276,125,175,62.6
LOX IMVI,51.8,60.3,122,71.7,218,98.0
WM1745,139,-,-,-,-,97.7
WM3526,69.3,176,125,102,125,64.1
COLO 800,26.4,90.3,66.2,61.5,198,101
WM1716,102,83.8,121,38.6,118,72.6
COLO 792,143,114,156,55.4,61.6,138
A2058,76.9,206,104,86.2,66.8,72.9
UACC-62,124,178,49.8,176,198,92.1
SK-MEL-30,97.5,133,150,66.5,127,121
RPMI-7951,276,138,43.8,107,163,66.2
501mel,-,193,512,239,-,132
WM451Lu,68.0,81.5,136,74.3,67.0,205
SK-MEL-5,40.9,38.7,133,142,141,167
C32,73.2,92.1,87.2,80.9,197,104